# According to the supplement of paper PMC12542422:
# Where a name gives a salt, the structure may show the parent alone. ± gives the standard deviation of the averaged measurements. This is one part of the list. Values are raw readings; no control value is given beside them.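 Across three biological replicates, HeLa cells were imaged for ribosome assembly using ENP1 staining (export block present or absent) or inducible tagged ribosomal protein reporters. Machine learning classified each cell's signal localization relative to DMSO controls. Hits exceeded the DMSO false-positive mean by five standard deviations and were then visually confirmed.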
# Tested on: HeLa RPL29-GFP reporter
# Experiment: fraction of reporter-positive cells with nuclear (nucleolar or nucleolar/nucleoplasmic) RPL29-GFP (MainHitrate); higher = more cells with nucleolar/nuclear readout signal (for ENP1 -LMB: less RNAPI inhibition; for +LMB ENP1 and RP reporters: stronger nuclear/nucleolar retention, i.e. ribosome biogenesis defect)
# Conditions: concentration: 1 µM; treatment time: 6 h
row,Compound,fraction of reporter-positive cells with nuclear
1,CN1CCC(=C2c3ccccc3CC(=O)c3sccc32)CC1 [Ketotifen fumarate (Zaditor)],0.22 ± 0.074
2,Nc1nc(N)c2nc(-c3ccccc3)c(N)nc2n1 [triamterene],0.227 ± 0.075
3,"CCOC(=O)C1=C(C)NC(C)=C(C(=O)OCC)C1c1ccccc1/C=C/C(=O)OC(C)(C)C [Lacidipine (Lacipil, Motens)]",0.227 ± 0.086
4,C[C@](N)(Cc1ccc(O)c(O)c1)C(=O)O [Methyldopa (Aldomet)],0.211 ± 0.08
5,CN(C)CCC(c1ccccc1)c1ccccn1 (centres undefined) [Pheniramine Maleate],0.216 ± 0.062
6,CC#CCn1c(N2CCC[C@@H](N)C2)nc2c1c(=O)n(Cc1nc(C)c3ccccc3n1)c(=O)n2C [Linagliptin (BI-1356)],0.215 ± 0.068
7,NS(=O)(=O)c1cc2c(cc1Cl)N=CNS2(=O)=O [Chlorothiazide],0.232 ± 0.062
8,NCC(=O)CCC(=O)O [5-Aminolevulinic acid hydrochloride],0.242 ± 0.085
9,CN(C)CCCN1c2ccccc2CCc2ccc(Cl)cc21 [Clomipramine hydrochloride (Anafranil)],0.225 ± 0.058

# Part of the list above, with tabs.
row	Compound	fraction of reporter-positive cells with nuclear
2	Nc1nc(N)c2nc(-c3ccccc3)c(N)nc2n1 [triamterene]	0.227 ± 0.075
3	CCOC(=O)C1=C(C)NC(C)=C(C(=O)OCC)C1c1ccccc1/C=C/C(=O)OC(C)(C)C [Lacidipine (Lacipil, Motens)]	0.227 ± 0.086
